Test results taken from PMC7350077.

The chains behind the UniProt entries cited, without tags or fusion partners. Residues count along the entry.
UniProt P37231, residues 29-505: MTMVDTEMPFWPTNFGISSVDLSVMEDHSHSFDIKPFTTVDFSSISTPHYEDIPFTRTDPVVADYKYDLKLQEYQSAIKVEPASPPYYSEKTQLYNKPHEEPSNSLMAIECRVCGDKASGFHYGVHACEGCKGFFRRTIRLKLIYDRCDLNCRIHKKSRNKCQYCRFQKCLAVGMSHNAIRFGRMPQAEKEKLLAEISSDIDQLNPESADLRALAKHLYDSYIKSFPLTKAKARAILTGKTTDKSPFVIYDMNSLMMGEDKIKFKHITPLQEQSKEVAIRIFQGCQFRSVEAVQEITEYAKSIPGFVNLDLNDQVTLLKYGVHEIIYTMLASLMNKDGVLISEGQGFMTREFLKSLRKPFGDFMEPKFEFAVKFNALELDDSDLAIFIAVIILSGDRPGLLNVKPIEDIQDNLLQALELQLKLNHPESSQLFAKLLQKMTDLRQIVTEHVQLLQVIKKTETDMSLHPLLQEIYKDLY
UniProt P99024: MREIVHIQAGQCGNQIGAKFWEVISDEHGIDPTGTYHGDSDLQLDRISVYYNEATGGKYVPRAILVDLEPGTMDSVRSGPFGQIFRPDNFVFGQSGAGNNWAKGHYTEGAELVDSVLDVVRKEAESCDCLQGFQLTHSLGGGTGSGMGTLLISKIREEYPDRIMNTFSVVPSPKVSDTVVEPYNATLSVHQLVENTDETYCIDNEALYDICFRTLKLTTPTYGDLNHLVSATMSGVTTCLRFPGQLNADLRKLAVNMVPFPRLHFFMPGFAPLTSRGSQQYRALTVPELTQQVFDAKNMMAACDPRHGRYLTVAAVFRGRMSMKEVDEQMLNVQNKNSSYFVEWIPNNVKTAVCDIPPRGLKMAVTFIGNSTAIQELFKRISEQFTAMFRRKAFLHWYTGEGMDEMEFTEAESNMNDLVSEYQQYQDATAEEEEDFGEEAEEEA

Target: N- and C-terminally HA-tagged human peroxisome proliferator-activated receptor gamma (hPPARγ) (human) (UniProt P37231)
Assay: affinity purification with mass spectrometry; HA-beads immunoprecipitation of HA-tagged hPPARγ from J774A.1 lysates (500 mM NaCl, 1% NP-40, 0.5% deoxycholate, 0.1% SDS, sonicated; overnight at 4°C); SDS-PAGE, gel piece of about 58 kDa ± 3 kDa cut out, LysC digestion, LC/MS; cells untreated or treated with LPS/IFNγ 4 h, IL4 4 h, H2O2 15 min, TPA 30 min; LC/MS data reanalysed for coimmunoprecipitated proteins

tubulin β-5 chain (TUBB5) (from UniProt P99024 1-444)
binding: binds

These are yes or no findings as the source states them, for the method shown. In cells and extracts the contact can be indirect. Here binding means that the protein was enriched with, or labelled near, the bait; the list need not be complete.
